According to patent publication US20100292175A1, “USE OF HYDROXYFLAVAN DERIVATIVES FOR TASTE MODIFICATION” (Leibniz-Institut fur Pflanzenbiochemie, priority 2009, published 2010):

Experiments:
[1] = Bitter reduction of a bitter substance solution (caffeine), panel of experts; type: in vivo; conditions: 50 ppm substance + 500 ppm caffeine
Text: To quantify the reduction (i.e. the masking or reduction) of the bitter sensation in a sample, the bitterness of a solution containing 500 ppm of caffeine was compared by a panel of experts in each case with a sample which contained 500 ppm of caffeine and additionally 50 ppm or 100 ppm of a substance to be assessed (in respect of the bitter-reduction ability) (grading: 1 [not bitter] to 10 [extremely bitter]).
For the evaluation, i.e. the calculation of the reduction (in %) of the bitter sensation, the mean values of the assessments by the panel of experts of the caffeine solution and the sample, to be compared, containing caffeine and a substance to be assessed were used in each case. In this respect, 2,4-dihydroxybenzoic acid (2,4-DHB) was used as the comparison (reference) according to U.S. Pat. No. 5,643,941.

[2] = in vivo; cited from earlier work

## COc1cc(C2CCc3ccc(O)cc3O2)ccc1O (centres unmarked) [compound 3, 4′,7-dihydroxy-3″-methoxyflavan]
[1]
  Observations on the sensory analysis of the sample: Slightly tart,

## COc1ccc(C2CCc3ccc(O)cc3O2)cc1O (racemic) [compound 2, 3′,7-dihydroxy-4′-methoxyflavan]
[2]
  primary taste: primary sweet taste
[1]
  Observations on the sensory analysis of the sample: Sweet,

## COc1cc(C2CCc3c(O)cc(O)cc3O2)ccc1O (centres unmarked) [compound 16, 4′,5,7-trihydroxy-3′-methoxyflavan]
[1]
  Observations on the sensory analysis of the sample: smoother,

## COc1ccc(C2CCc3c(O)cc(O)cc3O2)cc1O (centres unmarked) [compound 15, 3′,5,7-trihydroxy-4′-methoxyflavan]
[2]
  primary taste: primary sweet taste
